For one molecule, binding results are on record in publication PMC8497785, “Structural Characterization of the RNA-Binding Protein SERBP1 Reveals Intrinsic Disorder and Atypical RNA Binding Modes”.

No constants are given. Whether binding was seen depends on the method and setting.

Experiment [1] addresses T1, SERBP1 189-400 (Homo sapiens, UniProt Q8NC51 189-400).
T1 sequence: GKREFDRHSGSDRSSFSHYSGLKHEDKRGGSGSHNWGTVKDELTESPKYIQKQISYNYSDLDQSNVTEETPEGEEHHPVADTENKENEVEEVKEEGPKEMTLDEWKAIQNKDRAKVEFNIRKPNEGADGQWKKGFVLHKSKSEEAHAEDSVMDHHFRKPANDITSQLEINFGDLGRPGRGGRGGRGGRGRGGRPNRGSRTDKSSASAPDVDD
Nature of the experiment: AUC; sedimentation velocity; 25 µM in 20 mM Na2HPO4 pH 7.0, 60 mM NaCl; without and with 2 M GdnHCl; 40000 rpm, 20°C; continuous c(s) model in SEDFIT; both purified.

Experiment [2] addresses T1, SERBP1 189-400. Nature of the experiment: dynamic light scattering; 125 µM in 20 mM Na2HPO4 pH 7.0, 60 mM NaCl; without and with 2 M GdnHCl; 20°C; hydrodynamic radius compared with the value calculated for a disordered monomer; both purified.
The target of experiment [3] is T1, SERBP1 189-400. Nature of the experiment: SEC; Superdex 200 10 x 300 mm; 200 µL of a 15 µM sample; 20 mM Na2HPO4 pH 6.9, 60 mM NaCl, 1 mM PMSF, 0.2 mM EDTA; without and with 2 M GdnHCl; oligomeric state of the protein alone; both purified. In general terms: In gel filtration, larger molecules generally elute earlier.

B1: SERBP1 189–400 (domain or fragment, UniProt Q8NC51-1 189-400)
chain: GKREFDRHSGSDRSSFSHYSGLKHEDKRGGSGSHNWGTVKDELTESPKYIQKQISYNYSDLDQSNVTEETPEGEEHHPVADTENKENEVEEVKEEGPKEMTLDEWKAIQNKDRAKVEFNIRKPNEGADGQWKKGFVLHKSKSEEAHAEDSVMDHHFRKPANDITSQLEINFGDLGRPGRGGRGGRGGRGRGGRPNRGSRTDKSSASAPDVDD
For the molecule B1, the binding result is “no binding (tested: 25 µM)” in the experiment with SERBP1 189-400 [1], “no binding (tested: 125 µM)” in the experiment with SERBP1 189-400 [2] and “no binding (tested: 15 µM)” in the experiment with SERBP1 189-400 [3].
